# Experimental data from the supplement of paper PMC10735217.
# Several values for one entry are separate records, joined by “and”; a condition that tells them apart may be missing. Identical values can stand only once. Some of the results follow. This data set is noisy: repeats of one test often differ as much as different tests do.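 The human kidney-derived cells carry a stably integrated construct of eight TEAD-binding elements driving luciferase, read by luminescence in a drug-repurposing library screen. A compound counts as a hit when its signal is more than five robust Z scores above the plate mean.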
# System: HEK293A TEAD-LUC reporter
# Experiment: TEAD-luciferase reporter activity (YAP activation), robust Z score vs plate; higher = stronger YAP/TEAD activation
# Conditions: 24 h
Structure (SMILES),TEAD-luciferase reporter activity (compound concentration: 200 nM),TEAD-luciferase reporter activity (compound concentration: 2 uM),TEAD-luciferase reporter activity (compound concentration: 10 uM)
O=C1NC(c2ccc(-c3ccccc3)cc2)Nc2ccccc21 (centres undefined),inactive: -0.643,inactive: 2.28,inactive: -0.601
Cc1occc(=O)c1[O][Ga+3]([O]c1c(C)occc1=O)[O]c1c(C)occc1=O [gallium maltolate],inactive: -0.0951,inactive: -0.624,inactive: -1.55
COc1ccc2c(c1)N(C[C@H](C)CN(C)C)c1ccccc1S2 [Levomepromazine],inactive: -1.03,inactive: 2.71,inactive: 1.72
CCCCN(CCCC)CCCOC(=O)c1ccc(N)cc1,inactive: -0.396,inactive: 0.948,inactive: -2.2
CN1CCC(Nc2ncc3ncnc(Nc4ccc(F)c(Cl)c4)c3n2)CC1 [Falnidamol],inactive: -1.17,inactive: 1.33,inactive: 3.72
O=C(Nc1ccc(F)cc1)C1CN(C2CCCC2)C(=O)N1 (centres undefined),inactive: 0.552,,inactive: 3.19
CC(=O)NC[C@H]1CN(c2ccc(-n3ccnn3)c(F)c2)C(=O)O1,inactive: -1.13,inactive: -0.204,inactive: 3.81
CS(=O)(=O)Oc1ccc(OCCc2ccc(CC(C(=O)O)S(=O)CCc3ccc(O)cc3)cc2)cc1 (centres undefined),inactive: -0.305,inactive: -1.64,inactive: 0.417
COC(=O)c1oc(-c2ccc(Cl)cc2)nc1C,inactive: -0.507,inactive: 2.71,inactive: -0.397
COCOC(=O)[C@@H]1N2C(=O)[C@@H](N3C(=O)C(c4ccccc4)NC3(C)C)[C@H]2SC1(C)C (some centres undefined) [sarpicillin],inactive: 0.101,inactive: 0.667,inactive: -0.668
N[C@@H]1CCCN(c2c(/C=C3\SC(=O)NC3=O)cccc2-c2ccccc2)C1,inactive: -0.78,inactive: -1.23 and inactive: -1.45,inactive: 0.148
"C1CNCCN1 [1,4-Diazacyclohexane]",inactive: -0.483,,inactive: -0.823
C1CNCCN1,,inactive: 0.743,
O=C(O)CCCC[C@@H]1SC[C@@H]2NC(=O)N[C@@H]21,inactive: -0.188,inactive: -0.729,inactive: 1.45
COc1ccc(C[C@@H](CN[C@@H](CCCNC(=N)N)C(=O)O)NC(=O)[C@@H]2CCCN2C(=O)[C@H](CO)NC(=O)[C@H](Cc2cccs2)NC(=O)CNC(=O)[C@@H]2C[C@@H](O)CN2C(=O)[C@@H]2CCCN2C(=O)[C@@H](N)CCCNC(=N)N)cc1,inactive: 1.82,inactive: -0.0349,inactive: 4.82
COC(=O)c1csc(C)c1N,inactive: -0.586,inactive: -2.27,inactive: -0.0778
